The supplement of paper PMC11006884
Most of the targets with a hit are listed elsewhere, so they are rarer here than in the full data. The data scatter; read single values as rough. The list shows a part of the results, in another mix than the full data.

Amino acid sequences for entries named in this document (tags omitted). A change or cut given only in a name is not applied to a line headed by its entry.
UniProt P04181: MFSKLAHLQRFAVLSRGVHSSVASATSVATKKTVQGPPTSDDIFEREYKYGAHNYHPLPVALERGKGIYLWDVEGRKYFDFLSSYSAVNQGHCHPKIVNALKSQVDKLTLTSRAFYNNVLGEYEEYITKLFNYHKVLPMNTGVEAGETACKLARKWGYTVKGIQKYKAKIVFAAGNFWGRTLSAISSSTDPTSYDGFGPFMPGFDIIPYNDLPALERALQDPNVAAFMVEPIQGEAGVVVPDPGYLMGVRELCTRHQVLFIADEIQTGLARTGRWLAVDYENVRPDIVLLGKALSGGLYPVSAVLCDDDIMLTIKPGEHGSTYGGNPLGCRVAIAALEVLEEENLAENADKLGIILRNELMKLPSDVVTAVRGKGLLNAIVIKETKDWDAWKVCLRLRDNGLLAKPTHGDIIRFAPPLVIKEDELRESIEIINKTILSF
UniProt O94992, whole entry, looked up: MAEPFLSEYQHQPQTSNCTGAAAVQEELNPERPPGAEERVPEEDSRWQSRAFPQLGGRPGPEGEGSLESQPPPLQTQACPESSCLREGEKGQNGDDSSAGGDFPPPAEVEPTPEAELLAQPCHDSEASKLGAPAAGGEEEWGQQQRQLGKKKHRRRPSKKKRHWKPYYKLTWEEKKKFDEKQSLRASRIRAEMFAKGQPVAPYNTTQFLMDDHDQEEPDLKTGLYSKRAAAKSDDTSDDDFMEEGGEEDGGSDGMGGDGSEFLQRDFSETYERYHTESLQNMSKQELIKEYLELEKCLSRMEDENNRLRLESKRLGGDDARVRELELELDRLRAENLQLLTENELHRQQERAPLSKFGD
UniProt P07814: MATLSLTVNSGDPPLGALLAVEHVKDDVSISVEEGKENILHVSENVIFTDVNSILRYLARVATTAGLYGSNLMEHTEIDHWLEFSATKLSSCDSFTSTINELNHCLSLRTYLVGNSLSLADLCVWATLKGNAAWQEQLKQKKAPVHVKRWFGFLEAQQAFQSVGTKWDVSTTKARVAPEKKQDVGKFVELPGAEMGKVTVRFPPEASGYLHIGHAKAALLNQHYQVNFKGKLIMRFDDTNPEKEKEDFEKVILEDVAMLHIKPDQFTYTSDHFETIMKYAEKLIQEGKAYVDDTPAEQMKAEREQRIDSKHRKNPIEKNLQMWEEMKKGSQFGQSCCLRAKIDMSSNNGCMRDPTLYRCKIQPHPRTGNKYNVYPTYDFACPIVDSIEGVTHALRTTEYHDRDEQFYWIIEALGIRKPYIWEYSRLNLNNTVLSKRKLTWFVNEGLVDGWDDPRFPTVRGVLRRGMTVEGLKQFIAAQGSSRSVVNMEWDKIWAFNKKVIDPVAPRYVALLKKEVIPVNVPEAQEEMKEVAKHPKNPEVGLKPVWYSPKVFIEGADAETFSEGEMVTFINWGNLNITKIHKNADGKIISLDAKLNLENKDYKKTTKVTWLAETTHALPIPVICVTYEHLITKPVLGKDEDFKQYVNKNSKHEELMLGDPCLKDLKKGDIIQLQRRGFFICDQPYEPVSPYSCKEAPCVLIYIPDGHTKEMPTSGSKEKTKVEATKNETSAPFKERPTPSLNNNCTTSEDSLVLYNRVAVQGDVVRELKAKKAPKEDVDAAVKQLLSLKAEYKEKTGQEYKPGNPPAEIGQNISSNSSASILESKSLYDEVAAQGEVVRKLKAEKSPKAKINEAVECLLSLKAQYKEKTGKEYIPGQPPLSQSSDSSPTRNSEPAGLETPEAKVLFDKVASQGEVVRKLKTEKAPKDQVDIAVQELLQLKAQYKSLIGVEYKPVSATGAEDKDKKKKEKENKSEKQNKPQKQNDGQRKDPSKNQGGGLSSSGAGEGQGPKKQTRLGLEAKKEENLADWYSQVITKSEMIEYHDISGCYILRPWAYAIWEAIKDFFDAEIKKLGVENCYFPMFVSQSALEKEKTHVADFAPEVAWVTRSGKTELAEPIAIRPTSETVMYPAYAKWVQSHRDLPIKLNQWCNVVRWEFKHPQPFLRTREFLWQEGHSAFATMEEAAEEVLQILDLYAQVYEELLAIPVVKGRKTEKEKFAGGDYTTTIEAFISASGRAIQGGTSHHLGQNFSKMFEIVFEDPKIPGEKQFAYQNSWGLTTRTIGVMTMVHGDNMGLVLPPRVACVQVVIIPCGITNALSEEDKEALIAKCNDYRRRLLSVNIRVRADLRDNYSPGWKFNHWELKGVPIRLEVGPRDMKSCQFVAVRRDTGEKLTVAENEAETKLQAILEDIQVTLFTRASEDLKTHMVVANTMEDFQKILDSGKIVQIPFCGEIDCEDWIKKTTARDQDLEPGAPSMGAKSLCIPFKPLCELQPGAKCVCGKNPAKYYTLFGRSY
UniProt P07437, whole entry, looked up: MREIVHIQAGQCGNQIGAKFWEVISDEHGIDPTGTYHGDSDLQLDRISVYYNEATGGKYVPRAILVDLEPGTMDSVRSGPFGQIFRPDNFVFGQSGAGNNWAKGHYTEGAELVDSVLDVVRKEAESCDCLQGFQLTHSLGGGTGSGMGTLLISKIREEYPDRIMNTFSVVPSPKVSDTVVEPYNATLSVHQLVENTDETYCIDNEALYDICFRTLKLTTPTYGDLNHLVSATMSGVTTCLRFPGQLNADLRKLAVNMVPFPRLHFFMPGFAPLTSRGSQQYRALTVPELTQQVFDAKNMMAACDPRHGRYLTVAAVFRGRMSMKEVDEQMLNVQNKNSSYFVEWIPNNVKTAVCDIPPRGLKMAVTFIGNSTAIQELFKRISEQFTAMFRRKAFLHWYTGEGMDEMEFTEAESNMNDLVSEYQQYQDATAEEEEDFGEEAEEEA
UniProt O94906: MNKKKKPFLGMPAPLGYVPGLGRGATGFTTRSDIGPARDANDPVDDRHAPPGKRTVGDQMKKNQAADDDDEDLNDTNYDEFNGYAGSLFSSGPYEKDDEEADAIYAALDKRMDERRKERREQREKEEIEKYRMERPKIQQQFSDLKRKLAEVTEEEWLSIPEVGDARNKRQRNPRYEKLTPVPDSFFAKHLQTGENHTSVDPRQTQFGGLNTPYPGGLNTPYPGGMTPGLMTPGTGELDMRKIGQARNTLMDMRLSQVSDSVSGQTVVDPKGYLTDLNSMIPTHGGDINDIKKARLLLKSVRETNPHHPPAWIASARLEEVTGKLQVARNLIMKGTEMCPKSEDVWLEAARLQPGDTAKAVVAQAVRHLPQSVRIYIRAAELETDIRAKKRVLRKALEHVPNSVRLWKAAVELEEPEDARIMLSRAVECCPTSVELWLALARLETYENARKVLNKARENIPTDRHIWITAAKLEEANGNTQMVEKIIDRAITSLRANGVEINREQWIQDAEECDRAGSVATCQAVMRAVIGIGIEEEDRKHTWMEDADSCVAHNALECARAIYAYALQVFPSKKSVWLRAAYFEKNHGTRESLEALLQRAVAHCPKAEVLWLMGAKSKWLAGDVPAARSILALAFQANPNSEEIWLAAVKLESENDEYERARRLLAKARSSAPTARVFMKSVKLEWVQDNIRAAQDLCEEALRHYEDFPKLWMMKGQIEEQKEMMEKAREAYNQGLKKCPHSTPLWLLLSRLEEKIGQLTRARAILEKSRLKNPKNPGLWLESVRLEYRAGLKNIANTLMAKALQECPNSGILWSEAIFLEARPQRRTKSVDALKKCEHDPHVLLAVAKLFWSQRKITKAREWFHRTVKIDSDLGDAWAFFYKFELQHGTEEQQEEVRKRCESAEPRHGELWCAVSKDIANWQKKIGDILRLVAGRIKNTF
UniProt O95394: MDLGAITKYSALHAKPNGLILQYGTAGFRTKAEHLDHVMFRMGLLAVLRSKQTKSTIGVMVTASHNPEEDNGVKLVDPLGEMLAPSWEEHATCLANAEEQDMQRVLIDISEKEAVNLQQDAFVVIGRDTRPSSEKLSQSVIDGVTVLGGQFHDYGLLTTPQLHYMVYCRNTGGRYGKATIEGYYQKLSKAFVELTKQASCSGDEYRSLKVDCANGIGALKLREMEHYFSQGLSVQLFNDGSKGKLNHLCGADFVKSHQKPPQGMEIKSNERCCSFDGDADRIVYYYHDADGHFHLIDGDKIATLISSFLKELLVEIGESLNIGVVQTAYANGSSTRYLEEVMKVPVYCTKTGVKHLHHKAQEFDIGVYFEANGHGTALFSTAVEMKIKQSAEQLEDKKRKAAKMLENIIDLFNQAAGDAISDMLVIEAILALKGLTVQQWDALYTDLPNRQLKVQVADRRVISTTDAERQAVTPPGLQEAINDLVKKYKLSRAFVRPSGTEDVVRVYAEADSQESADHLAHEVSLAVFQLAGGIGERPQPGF
UniProt O95232: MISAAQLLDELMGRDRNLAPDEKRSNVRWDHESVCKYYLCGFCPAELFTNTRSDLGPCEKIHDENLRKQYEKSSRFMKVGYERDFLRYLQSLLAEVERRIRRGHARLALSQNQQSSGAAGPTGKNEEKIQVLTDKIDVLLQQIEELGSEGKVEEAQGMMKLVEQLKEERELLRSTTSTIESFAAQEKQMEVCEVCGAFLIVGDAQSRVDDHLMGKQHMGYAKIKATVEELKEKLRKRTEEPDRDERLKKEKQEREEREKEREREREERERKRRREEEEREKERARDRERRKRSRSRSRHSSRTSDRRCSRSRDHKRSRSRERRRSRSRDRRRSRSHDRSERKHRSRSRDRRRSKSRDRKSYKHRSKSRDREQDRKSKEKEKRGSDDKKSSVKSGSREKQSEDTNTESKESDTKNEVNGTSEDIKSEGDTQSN
UniProt O95456: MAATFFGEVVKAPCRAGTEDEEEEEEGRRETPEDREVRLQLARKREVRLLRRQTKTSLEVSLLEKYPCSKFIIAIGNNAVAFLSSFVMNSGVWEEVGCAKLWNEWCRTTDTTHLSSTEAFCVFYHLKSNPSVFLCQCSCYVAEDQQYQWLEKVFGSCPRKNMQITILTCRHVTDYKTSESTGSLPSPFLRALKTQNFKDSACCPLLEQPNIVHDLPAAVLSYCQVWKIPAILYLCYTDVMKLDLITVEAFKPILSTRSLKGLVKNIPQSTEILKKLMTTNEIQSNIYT
UniProt P00491: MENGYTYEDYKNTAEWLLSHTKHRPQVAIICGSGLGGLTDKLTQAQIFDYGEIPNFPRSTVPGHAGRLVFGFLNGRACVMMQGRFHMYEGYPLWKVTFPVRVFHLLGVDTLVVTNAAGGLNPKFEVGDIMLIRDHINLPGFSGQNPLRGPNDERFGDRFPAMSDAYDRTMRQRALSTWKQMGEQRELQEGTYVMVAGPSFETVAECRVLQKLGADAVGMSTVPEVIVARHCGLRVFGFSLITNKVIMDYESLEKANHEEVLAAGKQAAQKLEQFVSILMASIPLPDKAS
UniProt O95696: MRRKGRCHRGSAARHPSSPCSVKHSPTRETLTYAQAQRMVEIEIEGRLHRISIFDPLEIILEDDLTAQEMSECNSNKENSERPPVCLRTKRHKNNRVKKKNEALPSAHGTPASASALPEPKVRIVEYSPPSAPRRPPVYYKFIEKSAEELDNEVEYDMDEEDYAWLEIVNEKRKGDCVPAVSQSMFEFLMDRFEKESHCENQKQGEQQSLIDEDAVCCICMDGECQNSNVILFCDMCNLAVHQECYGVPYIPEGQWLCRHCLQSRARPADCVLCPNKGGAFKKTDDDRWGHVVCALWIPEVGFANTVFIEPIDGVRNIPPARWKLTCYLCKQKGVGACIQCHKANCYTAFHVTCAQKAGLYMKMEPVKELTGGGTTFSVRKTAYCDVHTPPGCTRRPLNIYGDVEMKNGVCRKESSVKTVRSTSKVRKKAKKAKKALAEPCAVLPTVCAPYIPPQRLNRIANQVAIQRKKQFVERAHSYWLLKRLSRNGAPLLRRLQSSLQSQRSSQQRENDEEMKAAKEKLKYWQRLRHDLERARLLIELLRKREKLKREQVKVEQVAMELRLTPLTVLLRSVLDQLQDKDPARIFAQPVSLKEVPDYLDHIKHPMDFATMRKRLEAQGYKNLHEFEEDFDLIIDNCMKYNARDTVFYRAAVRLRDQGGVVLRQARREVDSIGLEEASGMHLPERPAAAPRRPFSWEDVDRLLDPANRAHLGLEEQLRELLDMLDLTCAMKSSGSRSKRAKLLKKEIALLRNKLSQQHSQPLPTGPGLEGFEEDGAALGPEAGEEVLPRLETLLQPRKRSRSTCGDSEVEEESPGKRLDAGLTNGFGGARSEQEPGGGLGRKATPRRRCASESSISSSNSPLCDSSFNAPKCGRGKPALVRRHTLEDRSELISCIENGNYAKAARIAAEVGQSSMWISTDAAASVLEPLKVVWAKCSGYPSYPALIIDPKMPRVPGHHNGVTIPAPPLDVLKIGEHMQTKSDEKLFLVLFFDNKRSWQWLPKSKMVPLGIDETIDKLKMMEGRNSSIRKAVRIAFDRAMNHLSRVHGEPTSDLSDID
UniProt P04183: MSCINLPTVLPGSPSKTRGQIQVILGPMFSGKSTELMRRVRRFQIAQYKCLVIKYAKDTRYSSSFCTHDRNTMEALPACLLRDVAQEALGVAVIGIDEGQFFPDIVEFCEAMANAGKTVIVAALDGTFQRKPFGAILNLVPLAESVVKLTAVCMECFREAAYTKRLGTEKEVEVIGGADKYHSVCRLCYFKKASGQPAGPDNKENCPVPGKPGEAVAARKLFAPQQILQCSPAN

These targets were tested with COC(=O)/C=C/c1ccccc1 [methyl cinnamate] (assay: log2 ratio of iodoacetamide-alkyne labeling of the cysteine site, DMSO over compound (competition); higher = stronger covalent engagement of the cysteine by the compound, active = 1 or more). Details: 500 µM; treatment time 1 h; system: HEK293T cell lysate.
Procedure, shortened: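 HEK293T lysate at 2 mg/mL was treated with vehicle or electrophile (500 µM) for 1 h at ambient temperature, then labelled with iodoacetamide alkyne (1 h), clicked to sCIP-TMT reagents, pooled, digested with trypsin overnight at 37 °C, enriched on streptavidin and eluted with acid. Peptides were analysed by Orbitrap Eclipse LC-MS/MS with FAIMS and quantified in FragPipe, using duplicate channels and three replicates, with cysteines quantified in only one replicate excluded. The log2 competition ratio for each cysteine is the mean control-channel reporter intensity divided by the mean compound-channel reporter intensity.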

log2 ratio of iodoacetamide-alkyne labeling, inactive:
SBF1 C896 (UniProt O95248) 0.107, SOD1 C112 (UniProt P00441) -0.194, OAT C253 (UniProt P04181) -0.34, HEXIM1 C79 (UniProt O94992) 0.213, EPRS C350 (UniProt P07814) 0.0636, UniProt P07437_C129 0.126, CNOT4 C175 (UniProt O95628) 0.261, GPI C404 (UniProt P06744) 0.00314, MFN2 C482 (UniProt O95140) 0.153, OAT C150 (UniProt P04181) 0.158, GNAI2 C112 (UniProt P04899) 0.0232, PRPF6 C901 (UniProt O94906) 0.0742, UniProt O95104_C506 0.105, PCNT C2628 (UniProt O95613) 0.149, PRPF6 C550 (UniProt O94906) 0.13, UBE4B C494 (UniProt O95155) 0.162, PGM3 C93 (UniProt O95394) 0.0621, UniProt O95232_C58 0.274, PSMG1 C14 (UniProt O95456) 0.248, UniProt P00491_C206 -0.0573, HEXIM1 C18 (UniProt O94992) 0.102, PRPF6 C558 (UniProt O94906) 0.13, EPRS C105 (UniProt P07814) -0.097, STAMBP C264 (UniProt O95630) 0.0809, UniProt O96017_C385 -0.139, HSPA4L C290 (UniProt O95757) -0.0864, HERC2 C2770 (UniProt O95714) -0.0727, UniProt P07437_C12 0.0311, ZRANB2 C71 (UniProt O95218) 0.1, UniProt O95696_C937 0.0297, MBD3 C266 (UniProt O95983) 0.139, UROD C35 (UniProt P06132) 0.263, TTC4 C110 (UniProt O95801) 0.191, TK1 C230 (UniProt P04183) -0.148, EPRS C381 (UniProt P07814) 0.12, UniProt P04439_C363 0.225, HERC2 C1201 (UniProt O95714) -0.0943
